Results are given in words; binding and its absence hold for the method and conditions named. In cells and extracts the contact can be indirect. Here binding means that the protein was enriched with, or labelled near, the bait; the list need not be complete.
Molecular target: Flag-tagged PLSCR1 (PLSCR1-2Flag), phospholipid scramblase 1 (human) (UniProt O15162)
Assay: affinity purification with mass spectrometry; PLSCR1-2Flag complex isolated from enriched extracts of stable shPLSCR1-expressing MDA-MB231 cells with Flag affinity columns; bound proteins identified by mass spectrometry

By UniProt entry, the sequences of proteins in these tests, tags left out.
UniProt O15162: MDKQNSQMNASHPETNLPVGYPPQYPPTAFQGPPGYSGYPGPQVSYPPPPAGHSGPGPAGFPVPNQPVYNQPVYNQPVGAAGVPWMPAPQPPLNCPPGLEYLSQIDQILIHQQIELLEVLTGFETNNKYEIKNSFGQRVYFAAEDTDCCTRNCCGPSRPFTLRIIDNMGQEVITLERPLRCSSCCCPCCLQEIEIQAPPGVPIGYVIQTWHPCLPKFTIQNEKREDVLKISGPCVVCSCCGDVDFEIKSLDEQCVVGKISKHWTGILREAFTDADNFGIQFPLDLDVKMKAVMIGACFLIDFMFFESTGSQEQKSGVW
UniProt P40763: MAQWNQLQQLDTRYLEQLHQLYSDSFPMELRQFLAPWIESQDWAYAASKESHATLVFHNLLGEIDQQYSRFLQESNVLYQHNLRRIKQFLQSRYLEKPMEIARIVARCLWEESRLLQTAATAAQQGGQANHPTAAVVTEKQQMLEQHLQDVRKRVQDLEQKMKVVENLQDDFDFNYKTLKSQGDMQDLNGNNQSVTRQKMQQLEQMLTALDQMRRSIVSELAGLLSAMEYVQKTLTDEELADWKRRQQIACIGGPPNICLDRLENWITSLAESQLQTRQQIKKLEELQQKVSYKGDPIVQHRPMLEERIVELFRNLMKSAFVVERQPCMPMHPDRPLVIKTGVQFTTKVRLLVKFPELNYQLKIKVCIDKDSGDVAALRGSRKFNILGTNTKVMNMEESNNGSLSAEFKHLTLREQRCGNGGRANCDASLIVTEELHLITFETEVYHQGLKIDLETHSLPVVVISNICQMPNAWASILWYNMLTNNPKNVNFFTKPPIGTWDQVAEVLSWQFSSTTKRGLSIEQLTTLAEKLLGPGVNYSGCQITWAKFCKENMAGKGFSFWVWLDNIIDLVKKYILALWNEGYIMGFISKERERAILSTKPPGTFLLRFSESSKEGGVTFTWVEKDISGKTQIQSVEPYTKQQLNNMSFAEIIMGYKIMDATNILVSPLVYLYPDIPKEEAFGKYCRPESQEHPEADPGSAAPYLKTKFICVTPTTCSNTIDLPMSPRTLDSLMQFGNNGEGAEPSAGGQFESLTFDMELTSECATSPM
UniProt P06241: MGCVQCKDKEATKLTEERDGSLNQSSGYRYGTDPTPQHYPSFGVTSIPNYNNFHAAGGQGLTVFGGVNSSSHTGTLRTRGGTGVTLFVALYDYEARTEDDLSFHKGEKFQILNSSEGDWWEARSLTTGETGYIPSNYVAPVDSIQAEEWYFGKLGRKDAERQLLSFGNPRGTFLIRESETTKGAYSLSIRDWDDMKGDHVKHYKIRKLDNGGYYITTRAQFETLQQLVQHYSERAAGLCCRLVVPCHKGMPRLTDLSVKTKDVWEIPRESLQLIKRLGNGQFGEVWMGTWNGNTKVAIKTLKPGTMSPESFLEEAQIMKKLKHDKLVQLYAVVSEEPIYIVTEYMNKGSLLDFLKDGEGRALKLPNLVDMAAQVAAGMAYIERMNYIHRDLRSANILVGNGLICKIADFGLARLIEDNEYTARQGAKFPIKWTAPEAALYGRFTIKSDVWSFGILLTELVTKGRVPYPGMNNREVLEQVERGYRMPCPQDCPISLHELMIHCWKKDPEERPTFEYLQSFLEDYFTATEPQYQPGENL

binding, binds:
EGFR, endogenous (from UniProt P00533 25-1210) (receptor)
STAT3 (signal transducer and activator of transcription 3), endogenous (from UniProt P40763 1-770)
FYN, endogenous (from UniProt P06241 1-537) (enzyme)
